From article PMC6763430
These are yes or no findings as the source states them, for the method shown. In cells and extracts the contact can be indirect. Some results given as binding are weak or reduced against the parent protein; the word gives no strength.

The chains behind the UniProt entries cited, without tags or fusion partners.
UniProt P49023: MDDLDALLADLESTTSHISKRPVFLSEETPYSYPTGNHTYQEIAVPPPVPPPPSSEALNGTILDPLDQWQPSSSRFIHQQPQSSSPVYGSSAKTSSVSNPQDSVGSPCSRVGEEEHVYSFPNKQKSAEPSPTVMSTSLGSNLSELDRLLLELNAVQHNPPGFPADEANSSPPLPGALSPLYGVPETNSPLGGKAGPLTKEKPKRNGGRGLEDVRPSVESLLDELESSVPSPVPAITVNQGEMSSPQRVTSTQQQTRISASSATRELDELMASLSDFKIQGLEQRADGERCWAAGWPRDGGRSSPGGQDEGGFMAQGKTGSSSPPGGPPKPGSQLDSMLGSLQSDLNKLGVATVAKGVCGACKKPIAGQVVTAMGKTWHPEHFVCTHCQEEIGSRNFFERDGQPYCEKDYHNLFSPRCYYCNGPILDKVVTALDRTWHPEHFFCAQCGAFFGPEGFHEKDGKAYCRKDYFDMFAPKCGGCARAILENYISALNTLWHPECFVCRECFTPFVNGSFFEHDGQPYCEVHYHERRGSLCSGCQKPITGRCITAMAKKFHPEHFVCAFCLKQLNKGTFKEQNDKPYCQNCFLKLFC

Target: paxillin (human (endogenous in MCF-7)) (UniProt P49023)
Assay: co-IP; cells lysed in cold RIPA buffer with phosphatase and protease inhibitors; lysates pre-cleared 1 h with protein A/G-agarose beads, incubated overnight with paxillin-Trap agarose beads at 4 °C; bound protein eluted and blotted

B1: SEPT9 isoform 1 protein (SEPT9_i1) (protein, UniProt Q9UHD8-1 1-586)
chain: MKKSYSGGTRTSSGRLRRLGDSSGPALKRSFEVEEVETPNSTPPRRVQTPLLRATVASSTQKFQDLGVKNSEPSARHVDSLSQRSPKASLRRVELSGPKAAEPVSRRTELSIDISSKQVENAGAIGPSRFGLKRAEVLGHKTPEPAPRRTEITIVKPQESAHRRMEPPASKVPEVPTAPATDAAPKRVEIQMPKPAEAPTAPSPAQTLENSEPAPVSQLQSRLEPKPQPPVAEATPRSQEATEAAPSCVGDMADTPRDAGLKQAPASRNEKAPVDFGYVGIDSILEQMRRKAMKQGFEFNIMVVGQSGLGKSTLINTLFKSKISRKSVQPTSEERIPKTIEIKSITHDIEEKGVRMKLTVIDTPGFGDHINNENCWQPIMKFINDQYEKYLQEEVNINRKKRIPDTRVHCCLYFIPATGHSLRPLDIEFMKRLSKVVNIVPVIAKADTLTLEERVHFKQRITADLLSNGIDVYPQKEFDEDSEDRLVNEKFREMIPFAVVGSDHEYQVNGKRILGRKTKWGTIEVENTTHCEFAYLRDLLIRTHMQNIKDITSSIHFEAYRVKRLNEGSSAMANGMEEKEPEAPEM
  binding: binds
